Test results from US5880256A, “Factor VIIa inhibitors from Kunitz domain proteins” (Genentech, Inc., priority 1995, dated 1999).
At least one peptide structure holds a part that was inferred or is arguable (an end, a ring closure or a residue). Positions of bridges follow the written chain, without caps; N, C: chain ends. No end group written: not given here.

Tests used:
[1] = system: normal human plasma; test: Prothrombin time (PT) assay, clotting initiated by TF membranes; assay type: biochemical; details: 40 μM inhibitor, uninhibited clotting time 30 s
[2] = system: normal human plasma; test: Activated partial thromboplastin time (APTT) assay, initiated by ellagic acid; assay type: biochemical; details: 40 μM inhibitor, uninhibited clotting time 31 s
Experimental: For the activated partial thromboplastin time (APTT) assays, the activation time was set at 120 sec and acquisition time at 300 to 600 sec depending on the expected outcome of the assay. Citrated normal human plasma and inhibitor were incubated together. The sample (plasma and inhibitor) and activator (Instrumentation Laboratories Ellagic acid/Phospholipid mix Test Reagent) were automatically pipetted and incubated together for 2 min at 37° C., then CaCl2 was added and clotting time determined by means of optical assessment. The total incubation time of inhibitor with plasma was ca. 3 min before addition of activator, and 5 min before addition of CaCl2.

[3] = system: New Zealand white rabbits; test: Rabbit deep medial injury model (carotid artery patency, thrombus weight); assay type: in vivo
Experimental: Male New Zealand white rabbits (~4 kg) were anesthetized to surgical anesthesia plane with an IM injection of Ketamine / Xylaxine. The rabbits were placed supine on a restraining board, warmed to 37° C., and the neck and inner thigh area shaved. Teflon catheters were replaced in a marginal ear vein and femoral artery for drug delivery and sample collection respectively. Prior to treatment, blood samples were collected for coagulation tests (APTT and PT). Bleeding time was assessed from a cut made in the cuticle portion of a hind limb nail. Incisions were made in the neck region and the entire left common carotid artery and its branches were surgically isolated. An ultrasonic flow probe (Transonics®) was placed on the common carotid approximately 5 cm caudal to the common--internal bifurcation. After blood flow reached a stable baseline, drugs (saline or test compounds) were delivered via the marginal ear vein. A deflated embolectomy catheter (Fogarty®, 3F) was then introduced into the lumen of the common via an incision in the lingual branch. Blood flow through the artery was stopped briefly while the catheter was introduced and loosely secured with 2-0 silk tie at the incision site. After the catheter was in place and secure, blood flow was restored. The deflated balloon was advanced to within 2 mm of the flow probe and inflated with saline until resistance of the vessel wall was felt. The catheter was pulled back with a steady motion to the first branch and then deflated. […] Over 40 minutes, blood samples were taken for APTT and PT measurements, cuticle bleeding times were assessed and blood flow through the carotid monitored. Duration of patency was defined as the total amount of time (maximum=40 minutes) that any measurable blood flow is detected in the artery. […] If any thrombus was present, it was removed, blotted and the weight recorded.
[Heparin was dosed as a 25 u/kg bolus followed by a continuous infusion of 1) 0.5 u/kg/min or 2) 1 u/kg/min. […] With the exception of the patency data, values are expressed as means ±sem.]

Compound | PT clotting time, fold prolongation [1] [fold] | APTT clotting time, fold prolongation [2] [fold] | patency and clot size compared to the saline control (in words) ([3]; rabbit deep medial injury model) | Patency (%) ([3]; rabbit, 2 mg/kg IV bolus, animals with carotid blood flow ≥5 minutes) | Patency Duration ([3]; rabbit, 2 mg/kg IV bolus, maximum 40 minutes, mean ± sem) [min]
VREVCSEQAEPGPCKALMKRWYFDVTEGKCAPFYYGGCYGNRNNFDTEEYCAAVCGSA (disulfide 5-55, 14-38, 30-51) [IV-32B] | 1.4 | 1.3 |  |  | 
VREVCSEQAEPGPCRALMKRWYFDVTEGKCAPFVYGGCYGNRNNFDTEEYCAAVCGSA (disulfide 5-55, 14-38, 30-51) [IV-54C] | 2.1 | 2.2 |  |  | 
CC[C@H](C)[C@@H]1NC(=O)[C@H](CC(C)C)NC(=O)[C@H](C)NC(=O)[C@H](CCCNC(=N)N)NC(=O)[C@@H]2CSSC[C@@H]3NC(=O)CNC(=O)CNC(=O)[C@H](Cc4ccc(O)cc4)NC(=O)[C@H](Cc4ccccc4)NC(=O)[C@H](Cc4ccccc4)NC(=O)[C@@H]4CCCN4C(=O)[C@H](C)NC(=O)[C@H](CSSC[C@H](NC(=O)[C@H](Cc4ccc(O)cc4)NC(=O)[C@H](CCC(=O)O)NC(=O)[C@H](CCC(=O)O)NC(=O)[C@H]([C@@H](C)O)NC(=O)[C@H](CC(=O)O)NC(=O)[C@H](Cc4ccccc4)NC(=O)[C@H](CC(N)=O)NC(=O)[C@H](CC(N)=O)NC(=O)[C@H](CCCNC(=N)N)NC(=O)[C@H](CC(N)=O)NC(=O)CNC(=O)[C@H](Cc4ccc(O)cc4)NC3=O)C(=O)N[C@@H](C)C(=O)N[C@@H](C)C(=O)N[C@@H](C(C)C)C(=O)N[C@H](C(=O)NCC(=O)N[C@@H](CO)C(=O)N[C@@H](C)C(=O)O)CSSC[C@H](NC(=O)[C@@H](NC(=O)[C@H](CCC(=O)O)NC(=O)[C@H](CCCNC(=N)N)NC(=O)[C@@H](N)C(C)C)C(C)C)C(=O)N[C@@H](CO)C(=O)N[C@@H](CCC(=O)O)C(=O)N[C@@H](CCC(N)=O)C(=O)N[C@@H](C)C(=O)N[C@@H](CCC(=O)O)C(=O)N3CCC[C@H]3C(=O)NCC(=O)N3CCC[C@H]3C(=O)N2)NC(=O)[C@H](CCCCN)NC(=O)CNC(=O)[C@H](CCC(=O)O)NC(=O)[C@H]([C@@H](C)O)NC(=O)[C@H](C(C)C)NC(=O)[C@H](CC(=O)O)NC(=O)[C@H](Cc2ccccc2)NC(=O)[C@H](Cc2ccc(O)cc2)NC(=O)[C@H](Cc2c[nH]c3ccccc23)NC(=O)[C@H](CCCNC(=N)N)NC(=O)[C@H](CC(C)C)NC1=O [TF7I-C] |  |  | significantly prolonged patency and reduced clot size | 83 | 30.3 ± 6.7
